The source of these data is the supplement of paper PMC5407854, “Inhibitor of ppGalNAc-T3-mediated O-glycosylation blocks cancer cell invasiveness and lowers FGF23 levels” (eLife, 2017).

Whole data set: some 1,700 compounds, median “T3 sensor activation Q score (MG/GFP ratio z-score vs DMSO controls)” near 0.25, cut for the highest 2% near 1.9. Some of the results follow. Numbered stars: 1 amine (or outer) side, 2 acyl side, 3 side chain; on linkers, the order of the positions; unused ones are H or OH. Bridge positions count the residues as written; N and C are the ends. Square brackets hold non-standard residues; d marks the D form. Peptide text beside a SMILES is read from it. I, II: the chains in the order shown. Actinocin(9to1) = Cc1c2oc3c(C)ccc(C(=O)[*:1])c3nc-2c(C(=O)[*:2])c(N)c1=O; NMeV = CN[C@H](C(=O)O)C(C)C; Sar = CNCC(=O)O

The experiment relates to ppGalNAc-T3 sensor. Briefly: T3 sensor activation Q score (MG/GFP ratio z-score vs DMSO controls) (SD units); higher = more sensor activation (inhibition of ppGalNAc-T3 glycosylation). The conditions noted are these: HEK293 sensor cells; 10 µM; 6 h. As for the experimental part: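 Cells were treated with compound at 10 uM for 6 h, then MG/GFP ratio was read by flow cytometry (10,000 cells per well, duplicate wells). Q = (R - R_neg)/SD_neg relative to DMSO vehicle controls; the signal rises when the glycosyltransferase is inhibited.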
`CCOC(=O)Nc1ccc2nc(N3CCCCCC3)sc2c1`: the “T3 sensor activation Q score” value is -0.2.

In the case of `CC[C@]1(O)C[C@@H]2CN(CCc3c([nH]c4ccccc34)[C@@](C(=O)OC)(c3cc4c(cc3OC)N(C)[C@H]3[C@@](O)(C(=O)OC)[C@H](OC(C)=O)[C@]5(CC)C=CCN6CC[C@]43[C@@H]65)C2)C1`, the “T3 sensor activation Q score” value came to 1.45.

For `CC(C)(C)c1ccc(OC(=O)c2ccccc2)cc1`, the “T3 sensor activation Q score” value was 0.55.

As to `CN(C)c1ccc(N=Nc2cccc3ccoc23)cc1`, the “T3 sensor activation Q score” value was -0.6.

With `Cn1c(N)c(N=Nc2ccc(S(N)(=O)=O)cc2)c(=O)n(C)c1=O`, the “T3 sensor activation Q score” value worked out at 0.75.

As for `Cc1cc2c3ccccc3ncn2n1`, the “T3 sensor activation Q score” value is -0.95.

Turning to `CCOC(=O)c1c(C)nc(C)c(C(=O)OCC)c1-c1cccnc1`, the “T3 sensor activation Q score” value is 0.9.

As to `c1ccc2c(c1)Nc1ccncc1S2`, the “T3 sensor activation Q score” value is -1.

In the case of `Cc1cc2c(c(C#N)c1C)NC=NC2C` (stereo not drawn), the “T3 sensor activation Q score” value was -1.05.

Regarding `CCCNC(=S)Nc1ccccc1`, the “T3 sensor activation Q score” value was -1.

For the compound `CC(C)CCCCCCCCCCCCC(=O)NCC(=O)NC1C(C)OC(Nc2ncnc3nc[nH]c23)C(O)C1O` (stereo not drawn), the “T3 sensor activation Q score” value was -1.5.

Regarding `CN1CCN(C2=NCCO2)CC1`, the “T3 sensor activation Q score” value stood at 0.7.

With `CC1=Nc2ccccc2/C1=C\c1c(C)[nH]c2ccccc12`, the “T3 sensor activation Q score” value was -0.45.

On to `CN1CCC(n2[nH]c(-c3ccccc3)c(Cc3ccccc3)c2=O)CC1`, for which the “T3 sensor activation Q score” value is -0.4.

Turning to `O=C1NC(=S)S/C1=C\c1ccccc1C(=O)O`, the “T3 sensor activation Q score” value is -1.45.

Consider `c1coc(CNc2ncnc3[nH]ncc23)c1`, for which the “T3 sensor activation Q score” value is -0.4.

For `COC(=O)c1ccc(Cn2cnc3c(Cl)ncnc32)cc1`, the “T3 sensor activation Q score” value came to 0.3.

Regarding `CCCCCCCC1(C)NC(=O)NC1=O` (stereo not drawn), the “T3 sensor activation Q score” value is -1.9.

For the compound `O=C1c2cccc(Oc3ccccc3)c2C(=O)c2cccc(Oc3ccccc3)c21`, the “T3 sensor activation Q score” value was -0.1.

Turning to `N#CN=C(N)c1ccccc1`, the “T3 sensor activation Q score” value was found to be 1.2.

As for `CCOC(=O)Cc1csc2nc(-c3ccccc3)nn12`, the “T3 sensor activation Q score” value worked out at 0.25.

For the compound `CCOc1ccc(NC(=O)c2cc3ccccc3cc2O)cc1`, the “T3 sensor activation Q score” value is -0.1.

For the compound `COC(=O)N1C2CCCCC2=NN(c2ccccc2)N1C(=O)OC` (stereo not drawn), the “T3 sensor activation Q score” value is -0.6.

As for `C(=N\n1cnnc1)/c1ccc2c(c1)CCC2`, the “T3 sensor activation Q score” value stood at 0.05.

For `Cc1nc(C(N)=O)nc2ccccc12`, the “T3 sensor activation Q score” value stood at 0.2.

For the compound `Cc1c2cnccc2c(C)c2c1c1ccccc1n2CCOC(=O)c1ccccc1`, the “T3 sensor activation Q score” value worked out at 1.8.

Turning to `COc1ccc(OC)c(NC(=O)c2cc3oc4ccccc4c3cc2O)c1`, the “T3 sensor activation Q score” value is -1.55.

With `Cn1ncc2c(Nc3ccc([N+](=O)[O-])cc3)nc(Cl)nc21`, the “T3 sensor activation Q score” value came out at 1.05.

On to `Clc1nc(NCCc2ccccc2)c2cn[nH]c2n1`, for which the “T3 sensor activation Q score” value was 0.95.

With `COC(=O)c1cc2c(n1S(=O)(=O)c1ccc(C)cc1)C(=O)C(=O)c1[nH]cc(C(=O)OCc3ccccc3)c1-2`, the “T3 sensor activation Q score” value is 0.25.

Consider `CC(C)(C)c1ccc(C(=O)Nc2ccc(S(N)(=O)=O)cc2)cc1`, for which the “T3 sensor activation Q score” value was found to be 0.9.

On to `O=C1C2CC3N1CCC31c3ccccc3-n3c1c2ccc3=O` (stereo not drawn), for which the “T3 sensor activation Q score” value was -0.15.

Take `CC(=O)O[C@]1(C(C)=O)CC[C@H]2[C@@H]3C=C(C)C4=CC(=O)CC[C@]4(C)[C@H]3CC[C@@]21C`: the “T3 sensor activation Q score” value stood at 0.05.

With `CC[C@@]1(O)C(=O)OCc2c1cc1n(c2=O)Cc2cc3c(CN(C)C)c(O)ccc3nc2-1`, the “T3 sensor activation Q score” value is -1.6.

For the compound `Cc1ccc(-c2cc(C(=O)O)c3ccccc3n2)c(C)c1`, the “T3 sensor activation Q score” value came out at 1.8.

For the compound `Clc1nnc(NC2CCCCC2)c(Cl)c1Cl`, the “T3 sensor activation Q score” value is 0.1.

For the compound `O=C1CSCc2nc3ccccc3n21`, the “T3 sensor activation Q score” value was -0.85.

Consider `COC(=O)C(=Cc1ccccc1[N+](=O)[O-])C(=O)OC`, for which the “T3 sensor activation Q score” value is -0.8.

On to `COc1ccccc1/C=C(\C#N)C(=O)O`, for which the “T3 sensor activation Q score” value is -0.4.

As to `Cc1nc2nc(C(F)(F)F)[nH]c2nc1C`, the “T3 sensor activation Q score” value came out at 1.15.

Regarding `Cc1c2oc3c(C)ccc(C(=O)N[C@@H]4C(=O)N[C@H](C(C)C)C(=O)N5CCC[C@H]5C(=O)N(C)CC(=O)N(C)[C@@H](C(C)C)C(=O)O[C@@H]4C)c3nc-2c(C(=O)N[C@@H]2C(=O)N[C@H](C(C)C)C(=O)N3CCC[C@H]3C(=O)N(C)CC(=O)N(C)[C@@H](C(C)C)C(=O)O[C@@H]2C)c(N)c1=O` (I: T[dV]P[Sar][NMeV] / II: T[dV]P[Sar][NMeV]; ester I:1-I:C, II:1-II:C; linker I:N-II:N via Actinocin(9to1)), the “T3 sensor activation Q score” value stood at 0.05.

Turning to `O=C(Nc1ccc(Cl)c(Cl)c1)Nc1ccc([N+](=O)[O-])cn1`, the “T3 sensor activation Q score” value was found to be 0.55.

Take `Cn1c2ccccc2c2ccc3c(c21)C(=O)C=CC3=O`: the “T3 sensor activation Q score” value stood at 1.35.

Take `C=CCNC(=O)C1COc2ccccc2O1` (stereo not drawn): the “T3 sensor activation Q score” value is -1.25.

Consider `CC(C)Cn1cnc2c(N)nc3ccccc3c21`, for which the “T3 sensor activation Q score” value is -1.35.

Regarding `O=C(Nc1ccccc1-c1ccccc1)C(=O)Nc1ccccc1-c1ccccc1`, the “T3 sensor activation Q score” value is 1.65.

For `c1ccc(-c2nnc(-c3ccccc3)nn2)cc1`, the “T3 sensor activation Q score” value is -0.3.

As for `Cc1c2cc(O)c(=O)cc-2oc2cc(O)c(O)cc12`, the “T3 sensor activation Q score” value came to 0.15.

Consider `CCOC(=O)c1cc(-c2cccnc2)nc2c(Cl)cc(Cl)cc12`, for which the “T3 sensor activation Q score” value came to 1.7.

`COc1cccc2c1C(CO)N1C(C#N)C3CC(C(=O)O)C(C1C2)N3C` (stereo not drawn): the “T3 sensor activation Q score” value is -0.6.

For `CCCc1nc(NC(=O)c2ccccc2)nc(NC(=O)c2ccccc2)n1`, the “T3 sensor activation Q score” value came to 0.35.

Take `c1ccc(-c2n[nH]c(-c3ccccn3)n2)nc1`: the “T3 sensor activation Q score” value was 0.8.

Take `O=C(c1cccnc1)c1cc(-c2ccccn2)c(=O)n2ccccc12`: the “T3 sensor activation Q score” value turned out to be 1.25.

Regarding `OCCCCc1nccc2c1[nH]c1ccccc12`, the “T3 sensor activation Q score” value amounted to 1.

For `Nc1cnc(Nc2ccc(Br)cc2)nc1N`, the “T3 sensor activation Q score” value turned out to be 0.

Regarding `O=C(/C=C/C(=O)N1CCc2ccccc2C1)N1CCc2ccccc2C1`, the “T3 sensor activation Q score” value amounted to 0.2.

Consider `O=C(/C=C/c1ccc2ccccc2n1)c1cc(Cl)ccc1O`, for which the “T3 sensor activation Q score” value is -0.8.

Regarding `c1cc(CN2CCCNCCNCCCNCC2)ccc1CN1CCCNCCNCCCNCC1`, the “T3 sensor activation Q score” value is -0.5.
